From the supplement of paper PMC10849652
The other results are listed elsewhere or left out.

The chains behind the UniProt entries cited, without tags or fusion partners. Where a name states a change or a piece, a line headed by the entry shows the natural chain unless it says otherwise.
UniProt Q12986: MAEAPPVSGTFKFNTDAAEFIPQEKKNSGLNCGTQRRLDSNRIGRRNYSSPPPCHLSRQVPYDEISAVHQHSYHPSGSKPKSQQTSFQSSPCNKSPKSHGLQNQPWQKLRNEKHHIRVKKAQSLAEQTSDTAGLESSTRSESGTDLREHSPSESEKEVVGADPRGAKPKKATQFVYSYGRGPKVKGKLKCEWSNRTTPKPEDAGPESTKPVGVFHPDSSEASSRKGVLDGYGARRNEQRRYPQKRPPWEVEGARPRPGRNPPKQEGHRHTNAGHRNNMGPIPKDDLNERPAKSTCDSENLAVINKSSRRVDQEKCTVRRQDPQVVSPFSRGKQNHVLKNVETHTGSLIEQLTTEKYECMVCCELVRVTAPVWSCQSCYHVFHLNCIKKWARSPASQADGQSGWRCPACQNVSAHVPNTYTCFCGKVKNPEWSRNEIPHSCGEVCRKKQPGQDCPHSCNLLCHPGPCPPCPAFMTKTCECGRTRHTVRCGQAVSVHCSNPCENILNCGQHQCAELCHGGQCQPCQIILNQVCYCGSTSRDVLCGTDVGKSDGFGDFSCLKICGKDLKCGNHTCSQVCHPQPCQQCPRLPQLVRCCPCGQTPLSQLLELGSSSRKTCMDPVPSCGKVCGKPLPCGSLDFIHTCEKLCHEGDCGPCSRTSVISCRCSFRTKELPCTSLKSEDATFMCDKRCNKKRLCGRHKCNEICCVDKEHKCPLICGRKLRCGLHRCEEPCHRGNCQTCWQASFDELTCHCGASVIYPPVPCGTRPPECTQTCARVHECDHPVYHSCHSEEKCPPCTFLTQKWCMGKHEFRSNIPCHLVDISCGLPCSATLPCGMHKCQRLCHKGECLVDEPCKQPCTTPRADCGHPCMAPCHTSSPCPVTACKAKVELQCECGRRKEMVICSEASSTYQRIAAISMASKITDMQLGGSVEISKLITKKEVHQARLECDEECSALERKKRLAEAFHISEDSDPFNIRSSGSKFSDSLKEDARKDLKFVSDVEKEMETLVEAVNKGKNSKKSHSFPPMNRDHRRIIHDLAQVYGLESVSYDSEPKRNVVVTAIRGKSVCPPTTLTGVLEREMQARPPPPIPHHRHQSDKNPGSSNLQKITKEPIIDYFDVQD
UniProt P10588: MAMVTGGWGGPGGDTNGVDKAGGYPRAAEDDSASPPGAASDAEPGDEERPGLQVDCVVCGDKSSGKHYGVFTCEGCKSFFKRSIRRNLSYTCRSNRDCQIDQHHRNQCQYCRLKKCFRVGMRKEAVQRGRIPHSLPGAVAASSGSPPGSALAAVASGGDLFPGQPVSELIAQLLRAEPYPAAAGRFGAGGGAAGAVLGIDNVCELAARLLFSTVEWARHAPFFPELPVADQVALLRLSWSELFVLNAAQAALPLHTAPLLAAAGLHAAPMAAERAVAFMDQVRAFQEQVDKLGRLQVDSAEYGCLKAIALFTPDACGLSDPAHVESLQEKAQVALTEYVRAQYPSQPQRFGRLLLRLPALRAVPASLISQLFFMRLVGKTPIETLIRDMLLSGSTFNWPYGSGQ
UniProt O75607: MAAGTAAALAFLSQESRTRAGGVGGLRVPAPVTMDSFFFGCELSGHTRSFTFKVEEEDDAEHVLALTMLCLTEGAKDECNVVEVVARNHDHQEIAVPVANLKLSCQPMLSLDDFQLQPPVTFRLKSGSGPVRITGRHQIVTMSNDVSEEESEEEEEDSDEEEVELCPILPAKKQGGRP
UniProt P04150: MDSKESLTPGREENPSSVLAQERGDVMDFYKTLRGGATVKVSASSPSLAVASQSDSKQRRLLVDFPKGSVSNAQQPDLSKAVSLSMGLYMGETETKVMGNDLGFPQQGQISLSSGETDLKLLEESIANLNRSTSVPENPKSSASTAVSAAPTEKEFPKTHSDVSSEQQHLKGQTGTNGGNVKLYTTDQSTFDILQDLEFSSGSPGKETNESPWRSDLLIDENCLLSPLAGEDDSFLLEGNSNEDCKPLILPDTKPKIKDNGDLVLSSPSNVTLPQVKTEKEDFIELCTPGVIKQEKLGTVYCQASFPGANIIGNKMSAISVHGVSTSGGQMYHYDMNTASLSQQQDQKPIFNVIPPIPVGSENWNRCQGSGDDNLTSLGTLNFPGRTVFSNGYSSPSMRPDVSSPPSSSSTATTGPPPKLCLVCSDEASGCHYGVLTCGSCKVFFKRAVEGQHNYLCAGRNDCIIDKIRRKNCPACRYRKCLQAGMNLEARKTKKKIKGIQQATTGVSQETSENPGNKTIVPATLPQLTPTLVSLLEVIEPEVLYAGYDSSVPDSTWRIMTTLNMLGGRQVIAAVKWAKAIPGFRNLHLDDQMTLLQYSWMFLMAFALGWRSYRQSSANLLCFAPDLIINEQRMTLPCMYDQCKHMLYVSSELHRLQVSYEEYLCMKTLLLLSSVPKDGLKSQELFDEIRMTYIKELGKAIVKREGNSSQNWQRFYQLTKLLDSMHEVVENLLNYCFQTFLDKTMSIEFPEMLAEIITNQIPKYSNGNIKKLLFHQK
UniProt Q96IY1: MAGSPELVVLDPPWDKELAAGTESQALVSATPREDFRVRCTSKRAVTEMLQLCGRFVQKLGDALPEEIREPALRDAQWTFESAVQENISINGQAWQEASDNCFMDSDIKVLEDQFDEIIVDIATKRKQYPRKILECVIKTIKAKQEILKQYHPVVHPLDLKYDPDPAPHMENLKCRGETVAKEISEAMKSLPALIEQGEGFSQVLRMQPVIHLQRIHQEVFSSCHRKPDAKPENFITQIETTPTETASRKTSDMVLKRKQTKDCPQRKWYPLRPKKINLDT
UniProt Q15653: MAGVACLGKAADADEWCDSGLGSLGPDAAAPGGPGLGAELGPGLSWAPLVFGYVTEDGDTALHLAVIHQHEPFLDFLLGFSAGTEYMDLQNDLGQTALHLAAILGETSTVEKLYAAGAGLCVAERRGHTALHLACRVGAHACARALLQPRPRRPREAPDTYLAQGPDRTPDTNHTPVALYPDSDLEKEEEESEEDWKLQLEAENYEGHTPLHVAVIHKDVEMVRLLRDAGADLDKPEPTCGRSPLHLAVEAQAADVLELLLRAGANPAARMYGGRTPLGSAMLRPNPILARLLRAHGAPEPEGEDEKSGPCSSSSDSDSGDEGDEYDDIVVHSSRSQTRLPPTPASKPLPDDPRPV
UniProt P48681: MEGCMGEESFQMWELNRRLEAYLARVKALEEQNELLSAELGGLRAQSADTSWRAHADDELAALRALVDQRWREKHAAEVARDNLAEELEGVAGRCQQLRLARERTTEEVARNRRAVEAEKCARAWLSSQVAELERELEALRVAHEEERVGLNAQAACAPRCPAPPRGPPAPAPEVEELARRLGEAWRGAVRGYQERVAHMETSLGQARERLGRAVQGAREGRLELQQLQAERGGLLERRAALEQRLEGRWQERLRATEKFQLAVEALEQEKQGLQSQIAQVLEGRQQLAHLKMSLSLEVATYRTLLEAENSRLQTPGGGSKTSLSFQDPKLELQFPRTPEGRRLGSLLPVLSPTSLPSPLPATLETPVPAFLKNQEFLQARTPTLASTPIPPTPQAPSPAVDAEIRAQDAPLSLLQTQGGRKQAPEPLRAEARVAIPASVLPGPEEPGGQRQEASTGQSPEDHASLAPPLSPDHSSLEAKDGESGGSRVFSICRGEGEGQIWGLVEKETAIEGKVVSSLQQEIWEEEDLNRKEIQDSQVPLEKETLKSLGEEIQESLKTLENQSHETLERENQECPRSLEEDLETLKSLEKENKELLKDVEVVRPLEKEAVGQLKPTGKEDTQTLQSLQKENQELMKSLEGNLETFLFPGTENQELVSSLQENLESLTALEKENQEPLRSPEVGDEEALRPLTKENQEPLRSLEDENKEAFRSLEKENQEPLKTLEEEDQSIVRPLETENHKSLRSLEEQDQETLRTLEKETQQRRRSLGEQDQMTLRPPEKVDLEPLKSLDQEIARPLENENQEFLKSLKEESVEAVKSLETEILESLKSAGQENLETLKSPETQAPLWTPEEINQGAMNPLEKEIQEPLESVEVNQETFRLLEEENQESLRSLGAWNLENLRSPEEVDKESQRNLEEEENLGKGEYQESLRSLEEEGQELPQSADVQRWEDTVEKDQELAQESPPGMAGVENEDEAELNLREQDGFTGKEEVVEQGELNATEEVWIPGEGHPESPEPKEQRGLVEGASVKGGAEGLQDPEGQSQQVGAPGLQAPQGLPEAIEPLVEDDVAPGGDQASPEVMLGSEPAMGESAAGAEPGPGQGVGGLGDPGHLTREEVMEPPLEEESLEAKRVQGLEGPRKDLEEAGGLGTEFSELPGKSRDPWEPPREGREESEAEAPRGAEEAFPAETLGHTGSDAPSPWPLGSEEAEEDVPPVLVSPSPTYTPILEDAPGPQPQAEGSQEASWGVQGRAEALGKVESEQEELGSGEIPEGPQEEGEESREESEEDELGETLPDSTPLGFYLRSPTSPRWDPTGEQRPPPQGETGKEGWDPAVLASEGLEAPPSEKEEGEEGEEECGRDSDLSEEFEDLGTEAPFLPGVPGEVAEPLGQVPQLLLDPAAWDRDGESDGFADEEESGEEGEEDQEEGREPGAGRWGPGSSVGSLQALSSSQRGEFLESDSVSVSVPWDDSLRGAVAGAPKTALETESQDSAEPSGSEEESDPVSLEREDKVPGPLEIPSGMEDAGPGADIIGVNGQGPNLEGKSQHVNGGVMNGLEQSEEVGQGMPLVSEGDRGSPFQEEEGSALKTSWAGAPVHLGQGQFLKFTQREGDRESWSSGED
UniProt Q9UMY1: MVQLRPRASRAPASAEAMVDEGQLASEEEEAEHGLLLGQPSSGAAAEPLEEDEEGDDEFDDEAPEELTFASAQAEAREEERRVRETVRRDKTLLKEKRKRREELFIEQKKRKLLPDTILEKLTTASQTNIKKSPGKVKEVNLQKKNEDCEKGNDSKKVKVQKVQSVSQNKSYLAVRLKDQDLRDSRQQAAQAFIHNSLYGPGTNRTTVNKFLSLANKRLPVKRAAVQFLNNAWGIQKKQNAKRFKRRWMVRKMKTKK
UniProt P30419: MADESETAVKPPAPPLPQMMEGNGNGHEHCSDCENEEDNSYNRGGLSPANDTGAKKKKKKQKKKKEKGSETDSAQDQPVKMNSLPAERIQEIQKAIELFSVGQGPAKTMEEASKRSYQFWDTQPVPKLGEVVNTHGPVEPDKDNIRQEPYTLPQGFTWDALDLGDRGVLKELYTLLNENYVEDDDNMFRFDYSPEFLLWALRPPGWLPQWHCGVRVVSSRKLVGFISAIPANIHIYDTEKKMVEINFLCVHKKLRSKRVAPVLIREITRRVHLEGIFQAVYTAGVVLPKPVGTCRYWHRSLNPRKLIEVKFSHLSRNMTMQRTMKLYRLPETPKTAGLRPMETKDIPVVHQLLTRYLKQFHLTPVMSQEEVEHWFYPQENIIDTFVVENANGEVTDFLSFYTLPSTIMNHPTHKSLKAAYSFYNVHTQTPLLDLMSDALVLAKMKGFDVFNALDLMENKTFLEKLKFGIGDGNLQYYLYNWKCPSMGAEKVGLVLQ
UniProt O00567: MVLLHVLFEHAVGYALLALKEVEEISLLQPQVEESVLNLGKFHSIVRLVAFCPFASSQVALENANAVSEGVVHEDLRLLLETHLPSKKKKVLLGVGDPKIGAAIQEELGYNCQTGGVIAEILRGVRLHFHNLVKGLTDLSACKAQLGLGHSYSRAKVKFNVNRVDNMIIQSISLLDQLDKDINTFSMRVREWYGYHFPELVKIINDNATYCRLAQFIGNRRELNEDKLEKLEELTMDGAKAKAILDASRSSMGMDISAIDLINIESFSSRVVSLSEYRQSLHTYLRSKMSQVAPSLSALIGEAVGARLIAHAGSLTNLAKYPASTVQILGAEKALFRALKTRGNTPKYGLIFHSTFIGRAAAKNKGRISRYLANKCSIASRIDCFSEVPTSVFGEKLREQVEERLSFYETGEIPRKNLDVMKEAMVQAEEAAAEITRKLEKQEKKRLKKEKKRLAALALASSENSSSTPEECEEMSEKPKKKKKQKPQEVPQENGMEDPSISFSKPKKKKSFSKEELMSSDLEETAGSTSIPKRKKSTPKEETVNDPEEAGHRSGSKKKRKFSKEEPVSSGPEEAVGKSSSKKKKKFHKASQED
UniProt P51956: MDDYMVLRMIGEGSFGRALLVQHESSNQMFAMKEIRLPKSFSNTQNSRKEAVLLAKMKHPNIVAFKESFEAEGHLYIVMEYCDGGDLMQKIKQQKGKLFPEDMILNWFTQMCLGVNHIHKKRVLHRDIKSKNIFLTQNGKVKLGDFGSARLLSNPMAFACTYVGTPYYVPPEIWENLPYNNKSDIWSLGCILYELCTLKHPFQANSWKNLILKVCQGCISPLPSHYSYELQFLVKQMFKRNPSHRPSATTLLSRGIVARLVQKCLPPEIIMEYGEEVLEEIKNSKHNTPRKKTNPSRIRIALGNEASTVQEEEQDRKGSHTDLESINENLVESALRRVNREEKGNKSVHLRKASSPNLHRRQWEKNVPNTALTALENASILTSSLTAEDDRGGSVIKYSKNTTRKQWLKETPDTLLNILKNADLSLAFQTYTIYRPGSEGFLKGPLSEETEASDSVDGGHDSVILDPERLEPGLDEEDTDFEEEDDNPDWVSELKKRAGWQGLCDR

How the values were obtained:
Experiment in all cases: log2 fold change, soluble protein after heating vs DMSO (PISA); higher = thermal stabilisation; K562 cells, 10 uM, 30 min; active = over 0.2 and 3.5 SD of the protein, either way, in both replicates (recomputed)
erlotinib = compound: C#Cc1cccc(Nc2ncnc3cc(OCCOC)c(OCCOC)cc23)c1 [erlotinib]
Method in brief: (§1)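 Thermal stability values are relative to control samples and come from duplicates. They are expressed as log2 fold changes. For measurement, K562 cells (2×10^6 cells/mL) received 10 μM compound for 30 min, and aliquots were heated for 3 min over 48°C-58°C, pooled, and extracted at 4°C in PBS with 0.5% NP-40. Soluble protein, the supernatant after 21,000xg for 90 min, was quantified by TMTpro 16plex LC-MS/MS with equalised channel sums.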

[1] = compound: C/C(=N\NC(=O)C1=CC(=CC=C1)S(=O)(=O)N2CCOCC2)/C3=C(C=CC(=C3)Cl)O
Method in brief: as §1

[2] = compound: C1=CC(=C(C=C1Cl)C2=NC3=NC=CN=C3C(=N2)NC4=CC=NC=C4)F
Method in brief: as §1

[3] = compound: C1=CC(=CC=C1C2=NC3=C(N2)C=C(C=C3)C(=O)N)OC4=CC=C(C=C4)Cl
Method in brief: as §1

[4] = compound: C1=CC2=C(C=CC(=C2)/C=C\3/C(=O)NC(=NCC4=CC=CS4)S3)N=C1
Method in brief: as §1

[5] = compound: C1=CC2=NC=CN=C2C=C1/C=C/3\C(=O)NC(=O)S3
Method in brief: as §1

[6] = compound: C1=CC=C(C=C1)C2=NC(=C(N2)C3=CC=NC=C3)C4=CC(=C(C=C4)Cl)O
Method in brief: as §1

[7] = compound: C1=CC=C2C(=C1)C3=NNC4=CC=CC(=C43)C2=O
Method in brief: as §1

[8] = compound: C1CCN(C1)C(=O)NC2=CC=CC(=C2)NC3=NC=C(C(=N3)NCCC4=CN=CN4)Br
Method in brief: as §1

[9] = compound: C1CN(CCC1(CC2=CC=C(C=C2)Cl)N)C3=NC=NC4=C3C=CN4
Method in brief: as §1

Target	log2 fold change (erlotinib)	log2 fold change [1]	log2 fold change [2]	log2 fold change [3]	log2 fold change [4]	log2 fold change [5]	log2 fold change [6]	log2 fold change [7]	log2 fold change [8]	log2 fold change [9]
NFX1 (UniProt Q12986)	inactive: 0.065	inactive: -0.024	inactive: -0.26	inactive: 0.058	inactive: 0.042	inactive: -0.069	inactive: -0.039	inactive: -0.107	inactive: 0.014	inactive: 0.048
NPEPPS (UniProt P55786)	inactive: 0.002	inactive: 0.058	inactive: 0.054	inactive: -0.027	inactive: 0.061	inactive: 0.002	inactive: 0.005	inactive: 0.035	inactive: -0.009	inactive: 0.045
NR2F6 (UniProt P10588)	inactive: -0.207	inactive: 0.039	inactive: -0.03	inactive: 0.155	inactive: 0.039	inactive: 0.014	inactive: 0.013	inactive: -0.105	inactive: -0.028	inactive: -0.115
NEURL4 (UniProt Q96JN8)	inactive: -0.065	inactive: -0.41		inactive: 0.246	inactive: 0.188	inactive: -0.094	inactive: -0.08	inactive: -0.104		
NPM3 (UniProt O75607)	inactive: -0.083	inactive: -0.104		inactive: 0.02	inactive: -0.184	inactive: 0.04	inactive: -0.025	inactive: -0.022	inactive: -0.054	inactive: -0.087
NR3C1 isoform 3 (UniProt P04150)	inactive: 0.03	inactive: -0.61	inactive: 0.103	inactive: -0.08	inactive: 0.161				inactive: -0.13	inactive: -0.098
NSD3 (UniProt Q9BZ95)	inactive: -0.126	inactive: -0.11	inactive: 0.087	inactive: 0.044	inactive: -0.083	inactive: -0.203		inactive: 0.026	inactive: -0.208	inactive: -0.435
NSL1 (UniProt Q96IY1)	inactive: 0.007	inactive: 0.174		inactive: -0.072	inactive: 0.052	inactive: -0.012	inactive: 0.02	inactive: -0.082	inactive: 0.009	inactive: -0.185
NFKBIB (UniProt Q15653)	inactive: -0.017	inactive: -0.029	inactive: 0.039	inactive: 0.018	inactive: 0.047	inactive: 0.051	inactive: 0.049	inactive: 0.06	inactive: -0.082	inactive: 0.044
NOC2L (UniProt Q9Y3T9)	inactive: -0.008	inactive: 0.022	inactive: -0.066	inactive: -0.064	inactive: 0.063	inactive: 0.044		inactive: -0.07	inactive: -0.015	inactive: 0.034
NES (UniProt P48681)	inactive: -0.064	inactive: -0.15	inactive: -0.33	inactive: -0.029	inactive: 0.011	inactive: 0.166	inactive: -0.019	inactive: 0.04	inactive: 0.023	inactive: -0.111
NOL7 (UniProt Q9UMY1)	inactive: -0.151	inactive: -0.208	active: -0.728	inactive: 0.005	inactive: -0.179	inactive: 0	inactive: -0.071	inactive: -0.058	inactive: 0.045	inactive: -0.189
NMT1 (UniProt P30419)	inactive: -0.002	inactive: 0.001	inactive: 0.039	inactive: -0.009	inactive: -0.01	inactive: 0.07	inactive: -0.002	inactive: 0.05	inactive: 0.036	active: -0.363
NOP56 (UniProt O00567)	inactive: -0.093	inactive: -0.012	active: -0.676	inactive: 0.087	inactive: -0.232	inactive: 0.045	inactive: -0.164	inactive: -0.109	inactive: -0.111	inactive: -0.15
NEK3 (UniProt P51956)	inactive: 0.003	inactive: -0.011	inactive: 0.096	inactive: 0.06	inactive: -0.063		inactive: 0.039	inactive: -0.05	inactive: -0.141	inactive: 0.103

2 entries picked at random from those above:
Target	log2 fold change (erlotinib)	log2 fold change [1]	log2 fold change [2]	log2 fold change [3]	log2 fold change [4]	log2 fold change [5]	log2 fold change [6]	log2 fold change [7]	log2 fold change [8]	log2 fold change [9]
NFX1 (UniProt Q12986)	inactive: 0.065	inactive: -0.024	inactive: -0.26	inactive: 0.058	inactive: 0.042	inactive: -0.069	inactive: -0.039	inactive: -0.107	inactive: 0.014	inactive: 0.048
NR3C1 isoform 3 (UniProt P04150)	inactive: 0.03	inactive: -0.61	inactive: 0.103	inactive: -0.08	inactive: 0.161				inactive: -0.13	inactive: -0.098
